These results are taken from PubChem BioAssay AID2685 (National Center for Advancing Translational Sciences (NCATS), 2010).

This test is described as follows: qHTS Assay for Lipid Storage Modulators in Drosophila S3 Cells.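 For cell number change: cells counted by Cell Tracker Red CMTPX staining in the red channel.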 The settings on record: BODIPY lipid droplet fluorescence, 18-24 h; for cell number change: measured here: cell count max response, cells fed with added oleic acid. In a few lines:
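Drosophila S3 cells loaded with oleic acid (400 uM, as added) and compounds at several concentrations; lipid droplets imaged by 488-nm laser-scanning cytometry, 500–530 nm intensity and object ratio to cell channel. Percent activity normalized to 20 uM Triacsin C.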
A general note: qHTS replaces the single test concentration by a dilution series.

[1] abbreviates: measured here: lipid fluorescence (Fed channel) AC50, cells fed with added oleic acid.
The mark [2] stands for this setting: measured here: cell number channel AC50, cells fed with added oleic acid.

This is one part of the list. Further columns of the screen follow, without active or inactive calls. Compounds called inactive in the main read-out are mostly missing here. Potencies come from curve fits of mixed quality, noted in brackets.

The term AC50 denotes the concentration at which the activity in the assay is half-maximal. As to `CC(C)(C)c1ccc(C(=O)N/N=C/c2ccccn2)cc1`, the cell number change is -27.9%. Besides, the AC50 under setting [1] was 29.1 µM [falling, single point].

As for `COc1ccc(CCNC(=O)CSc2nnc(CNc3ccc(Cl)cc3)o2)cc1OC`, the cell number change is -21.3%. Also, under setting [1], the AC50 was 13 µM [falling, partial curve].

For the compound `Cc1cc(C(=O)N2CCC(C(N)=O)CC2)c(C)o1`, the cell number change was found to be 15.1%. Also, the AC50 under setting [1] is 3.66 µM [rising, single point].

Consider `CC(=O)c1sc(NC(=O)C(C)Oc2ccc3c(C)cc(=O)oc3c2)nc1C` (stereo not given), for which the cell number change turned out to be 20.1%. Moreover, the AC50 under setting [2] was 0.00411 µM [rising, full curve, poor fit]. Also, the AC50 under setting [1] is 3.66 µM [rising, full curve].

For `O=C1C2C3C=CC(C3)C2C(=O)N1c1cccc2cccnc12` (stereo not given), the cell number change was -15.4%.

In the case of `CC1CCN(C(=O)COc2ccc(Nc3ccccc3)cc2)CC1`, the cell number change is -23.1%. Besides, under setting [1], the AC50 is 2.59 µM [falling, single point].

`Cc1ccc(-c2nc3ccccc3[nH]2)cc1N`: the cell number change came out at 32.9%. Also, the half-maximal activity concentration (AC50) under setting [2] was 7.31 µM [rising, partial curve, poor fit]. The AC50 under setting [1] is 6.51 µM [rising, single point].

As to `C=CCN1C(=O)c2ccccc2Sc2ccc(C(=O)N3CCN(C)CC3)cc21`, the cell number change was found to be 22.7%.

Regarding `O=C(Nc1ccc(F)cc1)c1cccc(NC(=O)C2C3CC4OC(=O)C2C4C3)c1` (stereo not given), the cell number change was 4.2%. The AC50 under setting [1] is 4.11 µM [rising, partial curve, poor fit].

For the compound `CSc1ccc(-c2nc(CSCC(=O)NCCCN3CCCC3=O)c(C)o2)cc1`, the AC50 under setting [1] was 2.59 µM [falling, partial curve].

Take `Cc1ccccc1OCC(=O)OC(C)C(=O)NC1CCCC1` (stereo not given): the cell number change was -5.35%.

As for `NS(=O)(=O)c1cccc(NC(=O)CCCNC(=O)c2ccc(Cl)cc2)c1`, the cell number change was found to be 25.8%. Besides, the concentration at half-maximal activity (AC50) under setting [1] is 20.6 µM [rising, partial curve].

With `C[C@@H](NC(=O)[C@@H]1Cc2ccccc2CN1)C(=O)Nc1ccc2c(c1)OCO2`, the cell number change was -12.3%. Besides, the AC50 under setting [1] was 3.66 µM [rising, single point].

For `CCOC(=O)c1c(OCCO)noc1N`, the cell number change is -28.3%. Under setting [1], the half-maximal activity concentration (AC50) was 20.6 µM [falling, single point].

With `CC(C)(C)c1nnc2sc(SCC(=O)c3ccc4c(c3)OCCO4)nn2c1=O`, the cell number change was -41.4%. The concentration at half-maximal activity (AC50) under setting [2] was 11.6 µM [falling, partial curve]. For the same compound, the AC50 under setting [1] is 29.1 µM [falling, single point].

Turning to `COc1cc(/C=C/C(=O)O)cc(S(=O)(=O)NCCCO)c1OC`, the cell number change came to 1.9%. The AC50 under setting [1] was 0.146 µM [falling, full curve, poor fit].

With `Cc1cc(C)n2nc(SCn3nnc4ccccc4c3=O)nc2n1`, the cell number change was determined as 27.7%. Further, the AC50 under setting [1] is 5.17 µM [rising, full curve].

For `C=CCOc1ccc(CNn2nnnc2N)cc1`, the cell number change was -20.8%.

On to `CC(=O)c1cccc(NC(=O)COC(=O)Cc2ccc(Cl)cc2)c1`, for which the cell number change is -0.803%.

Regarding `CNC(=S)Nc1ccc([N+](=O)[O-])c(C)c1`, the cell number change came out at 42.5%. Also, the half-maximal activity concentration (AC50) under setting [2] is 2.31 µM [rising, full curve]. In addition, the AC50 under setting [1] was 29.1 µM [rising, single point].

As for `O=C1CC(N2CCN(Cc3ccccc3)CC2)C(=O)N1` (stereo not given), the cell number change was -14%. Also, the AC50 under setting [1] was 0.731 µM [falling, full curve].

As for `O=C(CNC(=O)c1ccc(S(=O)(=O)N2CCCC2)cc1)N/N=C/c1ccc(Cl)cc1`, the cell number change was -100%. For the same compound, the AC50 under setting [2] is 20.6 µM [falling, single point].

Regarding `COc1ccc(C(=O)NNC(=S)NC(=O)c2ccccc2)cc1`, the cell number change is -44.8%. For the same compound, the AC50 under setting [2] is 3.66 µM [falling, partial curve]. In addition, the concentration at half-maximal activity (AC50) under setting [1] is 0.411 µM [rising, single point].

On to `COCCn1c(SCC(=O)Nc2nnc(C)s2)nnc1-c1ccncc1`, for which the cell number change was -24.9%. Also, the AC50 under setting [2] is 0.103 µM [falling, full curve, poor fit]. Also, the AC50 under setting [1] is 3.26 µM [falling, full curve].

As for `COc1cccc(OCc2cc(C(=O)NCCN3CCCCC3CO)no2)c1` (stereo not given), the cell number change turned out to be 23.5%. In addition, under setting [2], the concentration at half-maximal activity (AC50) was 2.59 µM [rising, full curve, poor fit].

For `O=C(Cc1c(F)cccc1Cl)Nc1cccc(S(=O)(=O)NC2=NCCCCC2)c1`, the cell number change is 13.6%. Also, the AC50 under setting [1] is 29.1 µM [falling, single point].

For the compound `CCOC(=O)c1cc(CC)sc1NC(=O)COC(=O)c1cc[n+]([O-])cc1`, the cell number change amounted to 68%. Moreover, the AC50 under setting [2] was 11.6 µM [rising, partial curve].

For the compound `O=S(=O)(c1ccc(SCc2ccc(Br)cc2)nc1)N1CCOCC1`, the cell number change was -29.5%. Under setting [2], the AC50 is 0.58 µM [falling, full curve]. Under setting [1], the AC50 was 0.517 µM [falling, full curve].

For the compound `CC(=O)CSc1ncnc2sc3c(c12)CCC3`, the cell number change stood at 4.74%. Moreover, under setting [1], the AC50 is 13 µM [falling, partial curve].

On to `CCOC(=O)C(C)Oc1ccc(OCc2ccccc2)cc1` (stereo not given), for which the cell number change was -41.5%. Also, the AC50 under setting [2] is 20.6 µM [falling, single point].

`CC(C)N1CC(C(=O)Nc2ccc(C#N)cc2)CC1=O` (stereo not given): the cell number change is -4.5%. Also, under setting [1], the AC50 was 3.26 µM [rising, partial curve, poor fit].

On to `Cn1c(-c2ccccc2)c[n+]2c1CCCCC2`, for which the cell number change is -10.9%. Under setting [1], the concentration at half-maximal activity (AC50) is 18.4 µM [falling, partial curve].

In the case of `Cn1c(NCCCO)nc2c(c1=O)C1(CCCCC1)Cc1ccccc1-2`, the cell number change was 17.9%. Besides, under setting [1], the AC50 is 23.1 µM [falling, partial curve].

In the case of `c1ccc(-c2cc(CSc3nc4ccccc4[nH]3)on2)cc1`, the cell number change is -47.5%. The AC50 under setting [2] was 29.1 µM [falling, single point]. Further, the AC50 under setting [1] is 2.31 µM [rising, partial curve].

In the case of `COc1ccc(CNS(=O)(=O)c2ccc3c(c2)NC(=O)CS3)cc1`, the AC50 under setting [1] was 0.651 µM [rising, single point].

For `O=C(CSCc1nc2ccccc2[nH]1)Nc1ccc(Oc2ccccc2)cc1`, the cell number change stood at 6.16%.

Consider `CCC1(C)N=C(N)Nc2nc3cc(C)c(C)cc3n21` (stereo not given), for which the cell number change is -5.89%. Moreover, the AC50 under setting [1] was 4.61 µM [falling, full curve].

In the case of `COc1ccc(S(=O)(=O)NCc2csc(C)n2)cc1`, the cell number change was -0.329%. The AC50 under setting [1] was 0.00517 µM [falling, full curve, poor fit].

For the compound `Cc1cc(C)c2c(N)c(S(=O)(=O)c3ccccc3)sc2n1`, the cell number change was -2.01%. Moreover, under setting [1], the AC50 is 7.31 µM [falling, partial curve].

For `CC(C(=O)NC1CCCCC1)N(Cc1ccc(F)cc1)C(=O)c1snc(C(N)=O)c1N` (stereo not given), the cell number change was 1.28%. The AC50 under setting [1] is 0.116 µM [falling, single point].

Turning to `CC(=O)N1CCN(S(=O)(=O)c2ccc(Cl)cc2F)CC1`, the cell number change was -27.9%. Under setting [1], the AC50 is 0.517 µM [falling, full curve].

On to `CC(=O)Nc1ccc(S(=O)(=O)N2CCC(NC(=O)c3ccccc3)CC2)cc1`, for which the AC50 under setting [2] is 0.326 µM [rising, partial curve, poor fit].

For `CCC(=O)Nc1ccccc1-c1nnn(CC(=O)N2c3ccccc3CC2C)n1` (stereo not given), the AC50 is, setting by setting: under setting [2], 0.103 µM [rising, partial curve]; under setting [1], 0.82 µM [rising, partial curve].

Turning to `O=C(NNC(=O)c1nc(Cl)ccc1Cl)c1ccc(F)cc1`, the cell number change is -1.39%.

Turning to `COC(=O)c1cccc(C#CC(NP(=O)(c2ccccc2)c2ccccc2)c2ccccc2)c1` (stereo not given), the cell number change is -38.2%. For the same compound, the AC50 under setting [2] was 29.1 µM [falling, single point]. For the same compound, under setting [1], the AC50 is 29.1 µM [falling, single point].

Consider `COc1ccc(Cl)cc1N(CC(=O)N(C)C)S(=O)(=O)c1ccc(C)c([N+](=O)[O-])c1`, for which the cell number change is -48.7%. The AC50 under setting [2] was 7.31 µM [falling, full curve]. Also, under setting [1], the AC50 is 29.1 µM [falling, single point].

For `COc1ccc(C2NC(=O)NC(C)=C2C(=O)OCc2ccc3c(c2)OCO3)cc1OC` (stereo not given), the cell number change was -40.1%. In addition, the AC50 under setting [2] was 10.3 µM [falling, partial curve]. For the same compound, the AC50 under setting [1] is 11.6 µM [falling, partial curve].

On to `CCCC(=O)N(CCN1CCOCC1)c1nc2ccc(OCC)cc2s1`, for which the cell number change was -0.824%. Further, the AC50 under setting [1] was 29.1 µM [falling, single point].

Consider `O=[N+]([O-])c1ccc(N2CCc3ccccc3C2)nc1`, for which the cell number change turned out to be 4.4%. In addition, under setting [1], the AC50 is 6.51 µM [rising, partial curve, poor fit].

Turning to `C/C=C/c1ccc(OCCCCN2CC(C)CC(C)C2)c(OC)c1` (stereo not given), the cell number change was found to be 11.7%. Besides, the AC50 under setting [2] was 6.51 µM [falling, single point]. Besides, under setting [1], the AC50 is 6.51 µM [falling, single point].

Regarding `CC(=N\NC(=O)c1ccccc1)/C(=N/O)C(=O)Nc1ccccc1`, the cell number change is 40%. In addition, the concentration at half-maximal activity (AC50) under setting [2] is 29.1 µM [rising, partial curve, poor fit].

Take `Cc1ccc(O)c(/C=N/NC(=O)COc2ccc3c(C)cc(=O)oc3c2)c1`: the cell number change stood at 147%. For the same compound, the concentration at half-maximal activity (AC50) under setting [2] is 29.1 µM [rising, single point].

As to `O=C(c1ccoc1)N1CCCC(Nc2ccc(F)c(F)c2)C1` (stereo not given), the cell number change came to 19.6%.

As for `COc1cc(NS(=O)(=O)c2ccc(NC(=S)NC(=O)/C=C/c3ccc(OC)c(OC)c3)cc2)ncn1`, the cell number change was -11%. The AC50 under setting [2] was 0.00517 µM [falling, full curve, poor fit].

As to `Cc1cc(C(=O)COC(=O)c2ccc(NC(=O)CC#N)cc2)c(C)n1CCc1ccc(F)cc1`, the cell number change was -12.3%. Also, the AC50 under setting [1] is 20.6 µM [rising, partial curve].

For `Cc1nc2ccc(-n3ccc(=O)cc3)cc2s1`, the cell number change is 4.63%. Moreover, the AC50 under setting [1] was 0.326 µM [falling, full curve].

Turning to `CCOCCCNS(=O)(=O)c1ccc2c(c1)oc(=O)n2CC(=O)OCC`, under setting [1], the AC50 was 0.164 µM [falling, full curve, poor fit].

Take `O=C(CNC(=O)C1COc2ccccc2O1)N/N=C/c1ccc(O)cc1O` (stereo not given): the cell number change was 48.2%. Besides, the half-maximal activity concentration (AC50) under setting [2] was 32.6 µM [rising, single point]. The AC50 under setting [1] was 29.1 µM [rising, partial curve, poor fit].

In the case of `O=C1CCCN1CC(O)CS(=O)(=O)Cc1ccccc1` (stereo not given), the cell number change stood at 13.8%.

Take `O=C(Nc1ccc([N+](=O)[O-])cc1)Nc1nc(-c2ccc(Cl)s2)cs1`: the cell number change was -93.8%. Further, the AC50 under setting [2] is 5.8 µM [falling, full curve].
